Experimental data published in patent US6753297B2, “Use of indole-3-succinic acid as auxin” (priority 2001, dated 2004).
Some results were stated once for a whole list of compounds, not compound by compound.

Tests used:
[1] = tested on: Varigated Fuchsia; assay: Root growth of Varigated Fuchsia cuttings in hydroponic auxin solution; type: in vivo, Fuchsia hybrida; conditions: FIG. 5
Description: (§1) This example illustrates the auxin effect of each indole-3-succinic acid enantiomer and indole-3-succinic acid racemate, and compares them to IBA and water. A detailed description of this root growth study follows.
(§2) Fresh solutions were used in each experiment. Weights of hormone salts were measured to ±0.01 mg on a Mettler H-16 single-pan mechanical balance (reproducibility=±0.03 mg). Using indole-3-succinic acid R and S enantiomers as the 2×NH4^+ salt, 1.40 mg, was dissolved in 95% ethanol (20 mL) and slowly diluted to 500 mL with deionized water to make a stock solution of 1.047×10^−5 molar concentration. Dilutions were then made in the following manner.
(§3) For the concentration study (S)-indole-3-succinic acid; 2NH4^+ (98% e/e, 1.41 mg), and IBA Na(1.13 mg) were used to make stock solution of 1.055×10^−5 and 1.005×10^−5 molar, respectively. Deionized water was also used as a control.
(§4) Five new-growth cuttings of two different varieties of Fuchsia hybrida (i.e., Varigated Fuchsia and Swingtime Fuchsia) were placed into the 50 mL solutions contained in orange plastic pill containers that were blackened with black electrician's tape. […] Readings of the root growth were measured in total mm for the cuttings in a particular solution on days 7, 10, 14, 18, 22, 26, 30, and 34. These were recorded as the number of rootlets/total length (mm). […]

[2] = tested on: Swingtime Fuchsia; assay: Root growth of Swingtime Fuchsia cuttings in hydroponic auxin solution; type: in vivo, Fuchsia hybrida; conditions: FIG. 5
Description: as §1, §2, §3, §4

## O=C(O)C[C@@H](C(=O)O)c1c[nH]c2ccccc12 [(R)-ISA, (R)-indole-3-succinic acid]
[1]
  optimum concentration for root growth: 10^−7 to 10^−8 molar
[2]
  optimum concentration for root growth: 10^−7 to 10^−8 molar

## O=C(O)C[C@H](C(=O)O)c1c[nH]c2ccccc12 [(S)-ISA, (S)-indole-3-succinic acid]
[1]
  optimum concentration for root growth: 10^−7 to 10^−8 molar
[2]
  optimum concentration for root growth: 10^−7 to 10^−8 molar
